Test results reported in patent US20240158430A1, “NOVEL COMPOUND OR SALT THEREOF, AND ANTITUMOR ACTIVATOR CONTAINING SAME AS ACTIVE INGREDIENT” (AKITA UNIVERSITY, priority 2021, published 2024).
At least one structure is not confirmed: it was looked up by name or label, or the drawing left a doubt.

Assay: Turbidity measurement
Assay type: physicochemical
Settings: individual measurements; final conc. 8.3 μm; DMSO stock diluted in 30 mL DDW
Procedure: The turbidity of various compounds was measured. The method is as follows. […] Curcumin was cloudy while GO-Y199 was clear. The solubility was measured with a turbidimeter (WZB-170 Portable Turbidimeter available from REX). The turbidity of the compound was corrected for concentration.
Subsequently, GO-Y206 and curcumin were adjusted to final concentrations of 1.25 μM and 5.00 μM, respectively, and their turbidities were measured.

Q: With `COCOc1cc(C=CC(=O)CC(SCCOCCOCCOCCOCc2cn(C3OC(CO)C(O)C(O)C3O)nn2)c2cc(OCOC)cc(OCOC)c2)cc(OCOC)c1` (mixture of isomers) [GO-Y196] as the compound, how does the “Turbidity (NTU)” value read?
A: 0, 0, 0 NTU

Q: For `COc1cc(/C=C/C(=O)/C=C/c2ccc(O)c(OC)c2)ccc1O` [GO-Y022, reference compound], which “Turbidity (NTU)” value is on record?
A: 0.13, 0.13, 0.11 NTU

Q: With `COCOc1cc(/C=C/C(=O)CC(SCCOCCOCCOCCOCc2cn([C@@H]3O[C@H](CO)[C@@H](O[C@H]4O[C@H](CO)[C@@H](O)[C@H](O)[C@H]4O)[C@H](O)[C@H]3O)nn2)c2cc(OCOC)cc(OCOC)c2)cc(OCOC)c1` (stereo partly drawn) [GO-Y200] as the compound, how does the “Turbidity (NTU)” value read?
A: 0, 0, 0 NTU

Q: For `COCOc1cc(/C=C/C(=O)CC(SCCOCCOCCOCCOCc2cn([C@H]3O[C@H](CO)[C@@H](O)[C@H](O)[C@@H]3O)nn2)c2cc(OCOC)cc(OCOC)c2)cc(OCOC)c1` (stereo partly drawn) [GO-Y198], which “Turbidity (NTU)” value is on record?
A: 0, 0, 0 NTU

Q: With `COCOc1cc(/C=C/C(=O)CC(SCCOCCOCCOCCOCc2cn([C@H]3O[C@@H](CO)[C@H](O)[C@@H](O)[C@@H]3O)nn2)c2cc(OCOC)cc(OCOC)c2)cc(OCOC)c1` (stereo partly drawn) [GO-Y197] as the compound, how does the “Turbidity (NTU)” value read?
A: 0, 0, 0 NTU

Same assay, conditions: individual measurements; final conc. 170 μm; DMSO stock diluted in 30 mL DDW

Q: Which “Turbidity (NTU)” value does the source give for `COCOc1cc(/C=C/C(=O)CC(SCCOCCOCCOCCOCc2cn([C@@H]3O[C@H](CO)[C@@H](O[C@@H]4O[C@H](CO)[C@H](O)[C@H](O)[C@H]4O)[C@H](O)[C@H]3O)nn2)c2cc(OCOC)cc(OCOC)c2)cc(OCOC)c1` (stereo partly drawn) [GO-Y199] here?
A: 0.03, 0.05, 0.14 NTU
